Experimental data: PubChem BioAssay AID652259 (Drosophila RNAi Screening Center, 2013)
The screen tested about 22,000 reagents; below is an unselected part of those that have a named target and a result. In the full data, 233 (1.1%) got an active call. 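Light values are raw, unnormalised plate reads; the ratio scores behind the reporter calls were not deposited.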 Unmarked entries are inactive. The record does not give: the amount of reagent, the time to read-out, the dose of the treatment.

- Aim: 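Identify new Wingless signalling regulators in fly cells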 (primary screen)
- System: Drosophila clone 8 imaginal disc epithelial cells
- Reagents: long dsRNA against Drosophila genes
- Treatment: pathway stimulated by co-transfected Wingless expression plasmid
- Measurement: 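Dual luciferase reads per well after Wingless plasmid stimulation: reporter firefly light and Renilla control light; activity is firefly divided by Renilla, a ratio not deposited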
- Reading the numbers: firefly reporter light: higher = more Wg reporter light, before normalisation; Renilla control light: higher = more transfected or surviving cells
- Hit rule: 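a knock-down is a candidate when at least two out of four statistical tests show it departing from its plate mean; one test alone signals a weak candidate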
- Calls: active = candidate regulator (raises or lowers reporter); inactive = not a candidate

CG9757 [DRSC16557]
- firefly reporter light, replicate 1: 24105
- Renilla control light, replicate 1: 5360

CG9757 [DRSC21707]
- firefly reporter light, replicate 1: 8.71e5
- firefly reporter light, replicate 2: 8.68e5
- Renilla control light, replicate 1: 4.15e5
- Renilla control light, replicate 2: 4.21e5

GIIIspla2 [DRSC18094]
- firefly reporter light, replicate 1: 1920
- firefly reporter light, replicate 2: 6988
- Renilla control light, replicate 1: 519
- Renilla control light, replicate 2: 2247

Pms2 [DRSC07511]
- firefly reporter light, replicate 1: 9923
- Renilla control light, replicate 1: 1304

CG43111 [DRSC05796]
- firefly reporter light, replicate 1: 13735
- Renilla control light, replicate 1: 9431

Cht7 [DRSC08538]
- firefly reporter light, replicate 1: 3497
- Renilla control light, replicate 1: 1146

Cht7 [DRSC21783]
- firefly reporter light, replicate 1: 3.43e5
- firefly reporter light, replicate 2: 2.93e5
- Renilla control light, replicate 1: 1.54e5
- Renilla control light, replicate 2: 1.44e5

CG12129 [DRSC06105]
- firefly reporter light, replicate 1: 7517
- Renilla control light, replicate 1: 2808

Tsp42Eo [DRSC06184]
- firefly reporter light, replicate 1: 2768
- firefly reporter light, replicate 2: 4837
- Renilla control light, replicate 1: 728
- Renilla control light, replicate 2: 2554

CG13760 [DRSC18617]
- firefly reporter light, replicate 1: 16408
- Renilla control light, replicate 1: 11555

Mhcl [DRSC13130]
- firefly reporter light, replicate 1: 1874
- Renilla control light, replicate 1: 949

Mhcl [DRSC14216]
- firefly reporter light, replicate 1: 13329
- Renilla control light, replicate 1: 3309

Mhcl [DRSC16753]
- firefly reporter light, replicate 1: 17431
- Renilla control light, replicate 1: 3613

CG18649 [DRSC10334]
- firefly reporter light, replicate 1: 8982
- Renilla control light, replicate 1: 2202

CG16894 [DRSC06634]
- firefly reporter light, replicate 1: 11072
- Renilla control light, replicate 1: 3448

CG16894 [DRSC21785]
- firefly reporter light, replicate 1: 5.46e5
- firefly reporter light, replicate 2: 6.24e5
- Renilla control light, replicate 1: 1.77e5
- Renilla control light, replicate 2: 1.98e5

sn [DRSC18834]
- firefly reporter light, replicate 1: 13740
- Renilla control light, replicate 1: 7648

CG12883 [DRSC14570]
- firefly reporter light, replicate 1: 6592
- Renilla control light, replicate 1: 2058

RpL10Aa [DRSC15518]
- firefly reporter light, replicate 1: 10512
- Renilla control light, replicate 1: 1808

CG9522 [DRSC20197]
- firefly reporter light, replicate 1: 18982
- Renilla control light, replicate 1: 8374

Rpt1 [DRSC07542]
- firefly reporter light, replicate 1: 7220
- Renilla control light, replicate 1: 769

dnt [DRSC03522]
- firefly reporter light, replicate 1: 5893
- Renilla control light, replicate 1: 2592

Nup98-96 [DRSC14209]
- firefly reporter light, replicate 1: 6709
- firefly reporter light, replicate 2: 9573
- Renilla control light, replicate 1: 1005
- Renilla control light, replicate 2: 1179

Nup98-96 [DRSC14210]
- firefly reporter light, replicate 1: 9960
- Renilla control light, replicate 1: 8720

Nepl8 [DRSC02759]
- firefly reporter light, replicate 1: 3940
- firefly reporter light, replicate 2: 5516
- Renilla control light, replicate 1: 1447
- Renilla control light, replicate 2: 2539

Laid out differently: 2 of the entries above.
| gene knocked down | DRSC id | firefly reporter light, replicate 1 | firefly reporter light, replicate 2 | Renilla control light, replicate 1 | Renilla control light, replicate 2 |
| --- | --- | --- | --- | --- | --- |
| CG18649 | DRSC10334 | 8982 | – | 2202 | – |
| CG16894 | DRSC06634 | 11072 | – | 3448 | – |
